Results: paper PMC7949078
These are yes or no findings as the source states them, for the method shown. Binding seen in cells or lysates may run through a third protein. Here binding means that the protein was enriched with, or labelled near, the bait; the list need not be complete. Tags and fused reporters may be left off the sequences shown.

Biological target: T1, GST-PRAP1△N20 (GST-tagged recombinant PRAP1 lacking the N-terminal 20-aa signal peptide) (mouse) (UniProt Q80XD8)
T1 sequence: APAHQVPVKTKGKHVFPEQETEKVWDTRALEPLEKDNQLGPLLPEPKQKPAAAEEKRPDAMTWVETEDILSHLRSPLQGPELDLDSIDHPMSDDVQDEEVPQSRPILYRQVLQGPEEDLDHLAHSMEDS
Assay: affinity purification with mass spectrometry; about 10 ug GST-PRAP1△N20 (or GST) on glutathione beads added to 2 mg IEC lysate of PRAP1-/- mice; 1 h at 4 °C; NP-40 lysis buffer (10 mM HEPES pH 7.5, 142.5 mM KCl, 5 mM MgCl2, 1 mM EGTA, 0.2% NP-40); bands seen with GST-PRAP1△N20 but not GST identified by mass spectrometry; only the target purified

B1: Microsomal triglyceride transfer protein (MTTP), endogenous in mouse intestinal epithelial cells (protein, UniProt O08601 22-894)
chain: HTTGLSLNNERLYKLTYSTEVFLDGGKGKPQDSVGYKISSDVDVVLLWRNPDGDDDQVIQVTITAVNVENAGQQRGEKSIFQGKSTPKIIGKDNLEALQRPMLLHLVRGKVKEFYSYENEPVGIENLKRGLASLFQMQLSSGTTNEVDISGDCKVTYQAQQDKVVKIKALDTCKIERSGFTTANQVLGVSSKATSVTTYKIEDSFVTAVLAEETRAFALNFQQTIAGKIVSKQKLELKTTEAGPRMIPGKQVAGVIKAVDSKYKAIPIVGQVLERVCKGCPSLAEHWKSIRKNLEPENLSKAEAVQSFLAFIQHLRTSRREEILQILKAEKKEVLPQLVDAVTSAQTPDSLEAILDFLDFKSDSSIILQERFLYACGFATHPDEELLRALLSKFKGSFASNDIRESVMIIIGALVRKLCQNEGCKLKAVVEAKKLILGGLEKPEKKEDTTMYLLALKNALLPEGIPLLLKYAEAGEGPVSHLATTVLQRYDVSFITDEVKKTLNRIYHQNRKVHEKTVRTTAAAVILKNPSYMDVKNILLSIGELPKEMNKYMLTVVQDILHFEMPASKMIRRVLKEMAVHNYDRFSKSGSSSAYTGYVERSPRAASTYSLDILYSGSGILRRSNLNIFQYIGKAELHGSQVVIEAQGLEGLIAATPDEGEENLDSYAGMSAILFDVQLRPVTFFNGYSDLMSKMLSASGDPVSVVKGLILLIDHSQDIQLQSGLKANMEIQGGLAIDISGSMEFSLWYRESKTRVKNRVAVVITSDVTVDASFVKAGVESRAETEAGLEFISTVQFSQYPFLVCMQMDKAEAPLRQFETKYERLSTGRGYVSRRRKESLVAGCELPLHQENSEMCNVVFPPQPESDNSGGWF
In the case of B1, the binding is reported as “binds”.
